The results in this text go back to PMC3688854.

Chains of the proteins cited; added tags and fusions are not shown. Lines headed by an entry give the natural chain unless they say otherwise; changes in a name come on top.
UniProt D2D3G0: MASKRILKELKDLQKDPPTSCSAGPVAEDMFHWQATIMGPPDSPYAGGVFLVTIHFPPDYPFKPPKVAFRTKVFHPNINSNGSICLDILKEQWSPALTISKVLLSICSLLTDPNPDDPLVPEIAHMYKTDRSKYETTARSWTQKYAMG

No constants are given. Whether binding was seen depends on the method and setting. For some assays here: In cells and extracts the contact can be indirect. For some assays here: A result given as binding can be weak or reduced; the word gives no strength. For some assays here: Sequences can lack the tags named with a protein.

Experiment [1] has as its target YFP^N-VrUBC1 (mung bean (Vigna radiata)) (UniProt D2D3G0). The experiment can be described thus: split reporter; BiFC with pE-SPYNE/pE-SPYCE constructs coexpressed in N. benthamiana leaves by Agrobacterium infiltration with the p19 silencing plasmid; YFP fluorescence in protoplasts by confocal microscopy.
Experiment [2] deals with VrUBC1 (Vigna radiata UBC 1), fused to the DNA-binding domain in pDEST32 (mung bean (Vigna radiata)). Put plainly: two-hybrid; pDEST32 (bait, BD) / pDEST22 (prey, AD) in yeast MaV203; growth on SD/-Trp/-Leu/-Ura, X-beta-Gal and beta-galactosidase assay with ONPG; 30 C.

B1: Arabidopsis bZIP63, BiFC fusions (protein, UniProt B9DGI8 1-314)
chain: MEKVFSDEEISGNHHWSVNGMTSLNRSASEWAFNRFIQESSAAADDGESTTACGVSVSSPPNVPVDSEEYRAFLKSKLNLACAAVAMKRGTFIKPQDTSGRSDNGGANESEQASLASSKATPMMSSAITSGSELSGDEEEADGETNMNPTNVKRVKRMLSNRESARRSRRRKQAHLSELETQVSQLRVENSKLMKGLTDVTQTFNDASVENRVLKANIETLRAKVKMAEETVKRLTGFNPMFHNMPQIVSTVSLPSETSNSPDTTSSQVTTPEIISSGNKGKALIGCKMNRTASMRRVESLEHLQKRIRSVGDQ
Regarding B1, the binding entry in experiment [1] is “no binding”.

B2: XERICO (At2g04240), E3 ligase, prey in pDEST22 (enzyme, UniProt Q9SI09 1-162)
chain: MGLSSLPGPSEGMLCVILVNTALSISIVKGIVRSFLGIVGISLSPSSSSPSSVTVSSENSSTSESFDFRVCQPESYLEEFRNRTPTLRFESLCRCKKQADNECSVCLSKFQGDSEINKLKCGHLFHKTCLEKWIDYWNITCPLCRTPLVVVPEDHQLSSNVW
In the case of B2, the binding result in experiment [2] is “no binding”.

B3: At3g09770, C3HC4-type RING E3 ligase, prey in pDEST22 (enzyme, UniProt Q9S752 1-388)
chain: MGNISSSGGEGRRRRRRNHTAAPPPPPPPPSSSLPPPPLPTEIQANPIVFAAVTPYPNPNPNPVYQYPASYYHHPPPGAMPLPPYDHHLQHHPPHPYHNHSWAPVAMARYPYAGHMMAQPTPYVEHQKAVTIRNDVNLKKESLRLEPDPDNPGRFLVSFTFDATVSGRISVIFFAKESEDCKLTATKEDILPPITLDFEKGLGQKFKQSSGSGIDFSVFEDVELFKAAADTEIYPLAVKAEAAPSGGENEEEERSGSKNAQITQAVYEKDKGEIKIRVVKQILWVNGTRYELQEIYGIGNTVEGDDDSADDANDPGKECVICLSEPRDTTVLPCRHMCMCSGCAKVLRFQTNRCPICRQPVERLLEIKVHGNNGSGNNTGQGETVEQE
Consider B3, for which the binding entry in experiment [2] is “no binding”.

B4: SDIR1 (At3g55530), E3 ligase, prey in pDEST22 (enzyme, UniProt Q9M2S6 1-273)
chain: MSFVFRGSRGDLESGFSGGFLPERRAMRVHGARPVNSNSLAFLVTVLLLFMILNSHQMPPNFLLWLVLGVFLMATTLRMYATCQQLQAHAQAQAAAASGLFSHTELRLHVPPSIALATRGRLQGLRLQLALLDREFDDLDYETLRALDSDNVSTTSMSEEEINALPVHKYKVLDPENGCSLAKQASTSSSAEKMLDSANESKKGTEDELTCSVCLEQVTVGEIVRTLPCLHQFHAGCIDPWLRQQGTCPVCKFRAHSGWQEQDEIDDDASDMV
B4: in experiment [2], the binding result is listed as “no binding”.

B5: RHA2a (At1g15100), E3 ligase, prey in pDEST22 (enzyme, UniProt Q9ZT50 1-155)
chain: MGLQGQLSDVSSDSIPLMLLSLLAVFINHLRSFLLRLTSKSNPNLPVDDVSIASGLANIIVLADQLSLNRLFSYRCGDGGGGGSDCVVCLSKLKEGEEVRKLECRHVFHKKCLEGWLHQFNFTCPLCRSALVSDDCVSKTQRSVGRDLISCFSLH
For B5, the binding entry in experiment [2] is recorded as “no binding”.

B6: YFP^C-AtVBP1 (enzyme, UniProt Q84ME1 1-378)
chain: MGISLSKRRRDNNNNHHHPHHNPPYYYSDPPPQQPPPQNGYSYSHNYPVSTPQLSLPPPPAQPPSSSQPPPSQISYRPYGQNYHQNQYYPQQAPPYFTGYHHNGFNPMMRPVYFGPTPVAVMEPPAPYVEHQTAKKVKNDVNVNKATVRLVADDLNPGHYLVSFVFDALFDGSFTIIFFGEEESKCTIVPHLPEAFPPIKVPFQKGAGQKFLQAPGTGIDLGFFSLDDLSKPSPEEVYPLVISAETVISPSSVSEEPLVHKQITQAVLEKTNDGSFKVKVMKQILWIEGERYELQELYGIDNSITQGTAASGLEDTGGKECVICLTEPKDTAVMPCRHLCLCSDCAEELRFQTNKCPICRQPIHELVKIKVESSDEQH
With B6, in experiment [1], the binding result is “binds”.

B7: At5g03200, C3HC4-type RING E3 ligase, prey in pDEST22 (enzyme, UniProt Q9LYW5 1-337)
chain: MGNLISLIFCCGRRQRSNIPPAMETAPLELPPNRFVFAAVPPYLNPNPNYVDQYPGNCLPPPVTEPPMLPYNFNHLHHYPPNSYQLPHPLFHGGRYPILPPPTYVHQKAVTIRNDVNLKKKTLTLIPDPENPNRLLVSFTFDASMPGRITVVFFATEDAECNLRATKEDTLPPITFDFGEGLGQKFIQSSGTGIDLTAFKDSELFKEVDTDVFPLAVKAEATPAEEGKSGSTNVQITQVVYTKEKGEIKIEVVKQILWVNKRRYELLEIYGIENTVDGSDEGKECVVCLSEPRDTTVLPCRHMCMCSGCAKALRFQTNLCPVCRQPVEMLLEINKNG
As for B7, the binding result in experiment [2] was “no binding”.

B8: At3g53410, C3HC4-type RING E3 ligase, prey in pDEST22 (enzyme, UniProt Q9LFH6 1-299)
chain: MGNVISGGSRPENHRDRTSPPYPNPNAQYQGNYPSPYQDCARYPYGEMASPVQYVEHQEAVTIRNDINLKKETLRLEPDEQNPGKFLLSFTFDASVPGSITVMFFAKEGKDCNLIATKEDLFPSTQVSFAKGLEQRFKQACGTGIDFSDMSEADLVEANETDVYHVAVKAEVVSEDDHPESGTPNRQITHVVLEKDHKGEYKARVVKQILWVNGNRYVLQEIYGIGNTVDDNGEDANERGKECVICLSEPRDTTVLPCRHMCMCSGCAKLLRFQTNLCPICRQPVDRLLEITVNNNDRN
As for B8, the binding entry in experiment [2] is “no binding”.
